Measurements reported in patent US20250002528A1.
Where a chain is given by its changes, count along the chain named. Numbers in names are those of the source. No constants are given. Whether binding was seen depends on the method and setting. Some results given as binding are weak or reduced against the parent protein; the word gives no strength. One block for each binder: values may come before it.

Tests used:
SpyTag003-sfGFP [1] = test: SpyDock resin capture from doped E. coli lysate at 4 °C, elution at 37 °C; reducing SDS-PAGE/Coomassie [CONT.) D]
SpyTag-sfGFP [2] = test: SpyDock resin capture from doped E. coli lysate at 4 °C, elution at 37 °C; reducing SDS-PAGE/Coomassie
SpyTag-sfGFP [3] = test: resin capture of SpyTag-sfGFP at 4 °C; sfGFP fluorescence of flow-through, washes and 37 °C elution fractions, stacked bars [CONT.) E]
SpyTag003-sfGFP [4] = test: resin capture of SpyTag003-sfGFP at 4 °C; sfGFP fluorescence of flow-through, washes and 37 °C elution fractions, stacked bars [CONT.) E]
SpyTag003-sfGFP [5] = test: resin-coupled binder incubated with SpyTag003-sfGFP at pH 8.0 and 4 °C; sfGFP fluorescence of flow-through, wash and stepwise pH 6.0/5.0/4.0 elution fractions
SpyTag-sfGFP [6] = test: resin capture at 4 °C, sfGFP fluorescence (FIG. 5E)
SpyTag003-sfGFP [7] = test: as above
SpyTag-sfGFP [8] = test: resin capture at 4 °C, fluorescence of flow-through, wash and 37 °C elution fractions
SpyTag003-sfGFP [9] = test: as above
SpyTag003-sfGFP [10] = test: mutant on resin, binding at pH 8.0, stepwise pH elution, sfGFP fluorescence
SpyTag003-sfGFP [11] = test: resin-coupled binder incubated with SpyTag003-sfGFP at pH 8.0 and 4 °C; sfGFP fluorescence of flow-through, wash and stepwise pH 6.0/5.0/4.0 elution fractions [CONT.) C]
SpyTag-sfGFP [12] = test: resin capture and elution (summary of the examples)
SpyTag003-sfGFP [13] = test: as above
SpyTag003-sfGFP [14] = test: resin capture, stepwise pH elution, sfGFP fluorescence
SpyTag-sfGFP [15] = test: affinity capture on SpySwitch resin from doped E. coli lysate, elution pH 5.0 at 4 °C, SDS-PAGE
SpyTag003-sfGFP [16] = test: as above
SpyTag003-sfGFP [17] = test: affinity capture on SpySwitch resin before regeneration
SpyTag-sfGFP [18] = test: SpySwitch resin stored 7 weeks in 20% (v/v) ethanol in TP buffer pH 7.0 at 4 °C, capture from doped E. coli lysate, elution at pH 5; reducing SDS-PAGE/Coomassie
SpyTag-sfGFP [19] = test: SpySwitch resin capture from doped E. coli lysate at pH 7.5 and 4 °C, elution with pH 5.0 buffer at 4 °C; reducing SDS-PAGE/Coomassie
SpyTag003-sfGFP [20] = test: as above
SpyTag-sfGFP [21] = test: SpySwitch resin capture from doped E. coli lysate at pH 7.5 and 4 °C, elution at pH 8.0 and 37 °C; reducing SDS-PAGE/Coomassie
SpyTag003-sfGFP [22] = test: as above
SpyTag-sfGFP [23] = test: affinity capture on SpySwitch resin from doped E. coli lysate, temperature elution at 37 °C, SDS-PAGE
SpyTag003-sfGFP [24] = test: as above
SpyTag003-sfGFP [25] = test: resin binding before regeneration (FIG. 7B)
SpyTag-sfGFP [26] = test: affinity capture on SpySwitch resin stored 7 weeks in 20% ethanol at 4 °C, SDS-PAGE

B5: SpyCatcher003 S49C E77A S30H+E85H (designed binder)
chain: VTTLSGLSGEQGPSGDMTTEEDSATHIKFHKRDEDGRELAGATMELRDCSGKTISTWISDGHVKDFYLYPGKYTFVATAAPDGYHVATPIEFTVNEDGQVTVDGEATEGDAHT
binding (SpyTag003-sfGFP [11]): binds
binding (SpyTag003-sfGFP [10]): binds
binding (SpyTag003-sfGFP [5]): binds

B6: SpyCatcher003 S49C E77A S30H+Y84H (designed binder)
chain: B5 chain with Y84H, H85E
binding (SpyTag003-sfGFP [10]): binds
binding (SpyTag003-sfGFP [5]): binds

B7: SpySwitch (designed binder)
chain: MSYYHHHHHHGSGGSGAMVTTLSGLSGEQGPSGDMTTEEDSATHIHFHKHDEDGRELAGATMELRDCSGKTISTWITDGHVKDFYLYPGKYTFVATAAPDGHHVATPIEFTINEDGQVTVDGEATEGDPHTGSSGS
binding (SpyTag-sfGFP [15]): binds
binding (SpyTag003-sfGFP [16]): binds
binding (SpyTag003-sfGFP [17]): binds
binding (SpyTag-sfGFP [18]): binds
binding (SpyTag-sfGFP [3]): binds
binding (SpyTag003-sfGFP [4]): binds
binding (SpyTag-sfGFP [19]): binds
binding (SpyTag003-sfGFP [20]): binds
binding (SpyTag-sfGFP [21]): binds
binding (SpyTag003-sfGFP [22]): binds
binding (SpyTag-sfGFP [6]): binds
binding (SpyTag003-sfGFP [7]): binds
binding (SpyTag-sfGFP [23]): binds
binding (SpyTag003-sfGFP [24]): binds
binding (SpyTag-sfGFP [8]): binds
binding (SpyTag003-sfGFP [9]): binds
binding (SpyTag003-sfGFP [25]): binds
binding (SpyTag-sfGFP [26]): binds

The next lines start with the values.

binding (SpyTag003-sfGFP [1]): binds
binding (SpyTag-sfGFP [2]): binds
binding (SpyTag-sfGFP [3]): binds
binding (SpyTag003-sfGFP [4]): binds
binding (SpyTag003-sfGFP [5]): binds
binding (SpyTag-sfGFP [6]): binds
binding (SpyTag003-sfGFP [7]): binds
binding (SpyTag-sfGFP [8]): binds
binding (SpyTag003-sfGFP [9]): binds
B1: SpyDock (designed binder)
chain: B5 chain with H30S, H85E, E91T, D103N

binding (SpyTag003-sfGFP [10]): binds
binding (SpyTag003-sfGFP [5]): binds
B2: SpyCatcher003 S49C E77A S30H+G83H (designed binder)
chain: B5 chain with G83H, H85E

binding (SpyTag003-sfGFP [10]): binds
binding (SpyTag003-sfGFP [5]): binds
B3: SpyCatcher003 S49C E77A S30H+E34H (designed binder)
chain: B5 chain with E34H, H85E

binding (SpyTag003-sfGFP [11]): binds
binding (SpyTag-sfGFP [12]): binds
binding (SpyTag003-sfGFP [13]): binds
binding (SpyTag-sfGFP [3]): binds
binding (SpyTag003-sfGFP [4]): binds
binding (SpyTag-sfGFP [6]): binds
binding (SpyTag003-sfGFP [7]): binds
binding (SpyTag-sfGFP [8]): binds
binding (SpyTag003-sfGFP [9]): binds
binding (SpyTag003-sfGFP [14]): binds
B4: SpyDock2.0 (designed binder)
chain: B5 chain with Y84H
